The list shows a part of the results.
Compound: COC(=O)N[C@@H](C)CNc1nccc(-c2cn(C(C)C)nc2-c2cc(Cl)cc(NS(C)(=O)=O)c2F)n1 [encorafenib]
Assay: log2 fold change, soluble protein after heating vs DMSO (PISA); higher = thermal stabilisation; K562 cells, 10 uM, 30 min; active = over 0.2 and 3.5 SD of the protein, either way, in both replicates (recomputed)
How it was run: (§1)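 Soluble protein was quantified by TMTpro 16plex LC-MS/MS after channel sums were equalised. It was obtained as the supernatant after 21,000xg for 90 min from pooled aliquots of K562 cells (2×10^6 cells/mL, 10 μM compound, 30 min) heated for 3 min across 48°C-58°C and extracted in PBS with 0.5% NP-40 at 4°C. Thermal stability values are relative to control samples and come from duplicates. They are given as log2 fold changes.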

Protein sequences, listed by entry. Tags and fused reporters are not part of them. Lines headed by an entry give the natural chain unless they say otherwise; changes in a name come on top.
UniProt Q13685: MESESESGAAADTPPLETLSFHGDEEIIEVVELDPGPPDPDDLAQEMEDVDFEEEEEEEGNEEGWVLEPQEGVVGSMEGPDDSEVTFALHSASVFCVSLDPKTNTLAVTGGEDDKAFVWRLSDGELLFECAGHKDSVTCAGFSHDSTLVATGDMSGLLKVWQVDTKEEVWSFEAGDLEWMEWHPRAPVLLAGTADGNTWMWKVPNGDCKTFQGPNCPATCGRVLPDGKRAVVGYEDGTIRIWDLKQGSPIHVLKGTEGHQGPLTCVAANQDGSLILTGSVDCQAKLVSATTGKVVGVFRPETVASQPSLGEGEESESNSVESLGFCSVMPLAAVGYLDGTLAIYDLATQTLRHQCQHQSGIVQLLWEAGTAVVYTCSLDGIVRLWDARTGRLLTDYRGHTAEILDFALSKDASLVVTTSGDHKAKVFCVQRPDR
UniProt P33121: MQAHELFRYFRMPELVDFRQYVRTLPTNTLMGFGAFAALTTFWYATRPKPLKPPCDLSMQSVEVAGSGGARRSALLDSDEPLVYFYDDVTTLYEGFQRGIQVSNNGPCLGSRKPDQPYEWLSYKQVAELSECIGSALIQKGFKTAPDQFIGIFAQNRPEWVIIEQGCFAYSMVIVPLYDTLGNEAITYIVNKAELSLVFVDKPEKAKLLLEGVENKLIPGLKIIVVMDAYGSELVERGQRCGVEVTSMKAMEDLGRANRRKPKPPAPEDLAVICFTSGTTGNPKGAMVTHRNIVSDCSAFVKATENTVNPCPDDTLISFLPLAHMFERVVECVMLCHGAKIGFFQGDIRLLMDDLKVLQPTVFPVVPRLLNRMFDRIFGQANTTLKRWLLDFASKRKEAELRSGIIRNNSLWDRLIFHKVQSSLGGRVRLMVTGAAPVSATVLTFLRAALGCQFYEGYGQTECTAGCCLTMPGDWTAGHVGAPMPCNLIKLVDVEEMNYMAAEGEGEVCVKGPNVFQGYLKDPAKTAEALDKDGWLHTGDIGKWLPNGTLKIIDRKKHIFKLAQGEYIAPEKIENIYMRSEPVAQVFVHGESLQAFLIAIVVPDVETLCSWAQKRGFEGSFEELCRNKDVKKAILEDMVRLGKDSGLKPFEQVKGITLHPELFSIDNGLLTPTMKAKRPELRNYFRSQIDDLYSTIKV
UniProt Q6PD74: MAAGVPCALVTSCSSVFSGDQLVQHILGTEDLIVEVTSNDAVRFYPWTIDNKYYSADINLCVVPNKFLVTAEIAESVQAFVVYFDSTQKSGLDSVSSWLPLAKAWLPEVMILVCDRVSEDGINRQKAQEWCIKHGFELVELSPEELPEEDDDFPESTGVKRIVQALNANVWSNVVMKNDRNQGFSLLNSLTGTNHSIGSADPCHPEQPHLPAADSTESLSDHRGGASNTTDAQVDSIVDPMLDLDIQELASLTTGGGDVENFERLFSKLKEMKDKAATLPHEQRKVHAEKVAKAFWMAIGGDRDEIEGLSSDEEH
UniProt Q9BTE6: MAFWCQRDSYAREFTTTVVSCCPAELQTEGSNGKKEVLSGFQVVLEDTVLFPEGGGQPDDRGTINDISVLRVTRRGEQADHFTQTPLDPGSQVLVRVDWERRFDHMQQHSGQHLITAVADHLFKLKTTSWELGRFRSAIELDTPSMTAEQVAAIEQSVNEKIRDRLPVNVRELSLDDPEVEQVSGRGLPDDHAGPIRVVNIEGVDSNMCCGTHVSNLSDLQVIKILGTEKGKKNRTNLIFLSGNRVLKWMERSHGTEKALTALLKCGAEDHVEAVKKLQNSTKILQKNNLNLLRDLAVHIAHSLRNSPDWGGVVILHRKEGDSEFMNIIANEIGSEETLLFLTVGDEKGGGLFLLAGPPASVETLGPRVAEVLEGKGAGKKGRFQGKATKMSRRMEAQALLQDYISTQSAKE
UniProt Q76LX8: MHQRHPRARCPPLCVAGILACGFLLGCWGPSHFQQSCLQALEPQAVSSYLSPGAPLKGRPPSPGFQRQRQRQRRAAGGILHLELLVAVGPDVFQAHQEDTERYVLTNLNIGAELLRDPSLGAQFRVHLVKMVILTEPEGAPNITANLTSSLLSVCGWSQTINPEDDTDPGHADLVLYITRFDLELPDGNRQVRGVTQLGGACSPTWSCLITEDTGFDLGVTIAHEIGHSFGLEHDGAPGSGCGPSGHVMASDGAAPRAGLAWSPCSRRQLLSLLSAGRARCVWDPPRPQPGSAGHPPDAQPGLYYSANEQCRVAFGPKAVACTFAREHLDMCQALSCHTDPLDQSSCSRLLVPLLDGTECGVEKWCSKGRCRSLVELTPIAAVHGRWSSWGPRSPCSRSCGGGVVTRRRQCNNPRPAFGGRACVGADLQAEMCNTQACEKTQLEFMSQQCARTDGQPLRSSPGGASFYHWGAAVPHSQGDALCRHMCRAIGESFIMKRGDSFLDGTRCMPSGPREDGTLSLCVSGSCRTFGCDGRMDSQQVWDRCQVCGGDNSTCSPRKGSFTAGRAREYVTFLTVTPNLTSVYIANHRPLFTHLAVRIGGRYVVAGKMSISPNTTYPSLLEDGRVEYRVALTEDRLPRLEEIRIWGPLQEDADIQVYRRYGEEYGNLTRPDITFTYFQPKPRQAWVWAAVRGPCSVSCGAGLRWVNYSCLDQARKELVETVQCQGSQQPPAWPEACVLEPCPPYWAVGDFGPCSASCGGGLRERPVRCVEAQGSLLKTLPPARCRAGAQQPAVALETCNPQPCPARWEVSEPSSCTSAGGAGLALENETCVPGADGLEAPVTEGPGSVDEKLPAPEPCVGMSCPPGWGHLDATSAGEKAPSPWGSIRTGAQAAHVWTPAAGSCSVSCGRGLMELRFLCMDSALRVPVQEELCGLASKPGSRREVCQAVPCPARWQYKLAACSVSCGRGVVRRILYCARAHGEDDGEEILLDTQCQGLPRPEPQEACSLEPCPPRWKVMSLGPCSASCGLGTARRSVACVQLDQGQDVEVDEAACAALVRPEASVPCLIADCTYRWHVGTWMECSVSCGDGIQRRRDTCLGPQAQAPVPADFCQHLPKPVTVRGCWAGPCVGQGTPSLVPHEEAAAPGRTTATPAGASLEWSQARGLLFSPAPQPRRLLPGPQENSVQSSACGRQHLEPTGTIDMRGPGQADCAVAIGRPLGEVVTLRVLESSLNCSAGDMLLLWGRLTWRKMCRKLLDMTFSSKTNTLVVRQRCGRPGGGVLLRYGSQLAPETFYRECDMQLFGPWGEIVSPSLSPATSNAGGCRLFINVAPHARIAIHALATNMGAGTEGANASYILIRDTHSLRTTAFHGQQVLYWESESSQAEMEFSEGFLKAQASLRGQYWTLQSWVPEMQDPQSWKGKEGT
UniProt Q8NFV4: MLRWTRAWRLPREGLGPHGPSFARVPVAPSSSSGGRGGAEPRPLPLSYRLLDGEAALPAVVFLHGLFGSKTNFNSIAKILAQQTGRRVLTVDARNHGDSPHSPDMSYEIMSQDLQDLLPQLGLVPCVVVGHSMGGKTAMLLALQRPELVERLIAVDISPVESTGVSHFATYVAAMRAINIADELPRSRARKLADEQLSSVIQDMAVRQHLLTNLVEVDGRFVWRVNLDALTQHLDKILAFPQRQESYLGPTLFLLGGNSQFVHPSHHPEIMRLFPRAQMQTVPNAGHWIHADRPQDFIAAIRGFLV
UniProt O95870: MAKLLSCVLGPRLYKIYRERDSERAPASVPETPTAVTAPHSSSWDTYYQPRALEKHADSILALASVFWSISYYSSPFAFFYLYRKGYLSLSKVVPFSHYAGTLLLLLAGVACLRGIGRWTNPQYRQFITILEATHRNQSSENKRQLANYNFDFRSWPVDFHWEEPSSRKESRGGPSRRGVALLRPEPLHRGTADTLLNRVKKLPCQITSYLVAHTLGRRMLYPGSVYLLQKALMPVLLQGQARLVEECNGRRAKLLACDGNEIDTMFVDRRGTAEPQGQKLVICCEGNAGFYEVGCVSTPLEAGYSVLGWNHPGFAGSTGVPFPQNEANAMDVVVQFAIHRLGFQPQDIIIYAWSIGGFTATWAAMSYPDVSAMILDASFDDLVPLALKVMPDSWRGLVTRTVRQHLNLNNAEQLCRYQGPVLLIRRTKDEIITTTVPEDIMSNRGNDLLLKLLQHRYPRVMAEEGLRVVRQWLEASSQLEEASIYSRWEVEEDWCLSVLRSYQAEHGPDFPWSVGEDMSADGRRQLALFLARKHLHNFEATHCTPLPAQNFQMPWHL
UniProt P14621: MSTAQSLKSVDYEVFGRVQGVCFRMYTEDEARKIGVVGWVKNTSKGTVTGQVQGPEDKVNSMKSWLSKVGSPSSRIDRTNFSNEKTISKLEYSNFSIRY
UniProt Q9NX38: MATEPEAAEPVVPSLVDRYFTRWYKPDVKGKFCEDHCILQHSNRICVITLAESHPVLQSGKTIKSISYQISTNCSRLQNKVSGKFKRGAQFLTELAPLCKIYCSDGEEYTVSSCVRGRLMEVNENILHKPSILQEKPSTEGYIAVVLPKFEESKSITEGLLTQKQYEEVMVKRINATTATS
UniProt P42025, whole entry, looked up: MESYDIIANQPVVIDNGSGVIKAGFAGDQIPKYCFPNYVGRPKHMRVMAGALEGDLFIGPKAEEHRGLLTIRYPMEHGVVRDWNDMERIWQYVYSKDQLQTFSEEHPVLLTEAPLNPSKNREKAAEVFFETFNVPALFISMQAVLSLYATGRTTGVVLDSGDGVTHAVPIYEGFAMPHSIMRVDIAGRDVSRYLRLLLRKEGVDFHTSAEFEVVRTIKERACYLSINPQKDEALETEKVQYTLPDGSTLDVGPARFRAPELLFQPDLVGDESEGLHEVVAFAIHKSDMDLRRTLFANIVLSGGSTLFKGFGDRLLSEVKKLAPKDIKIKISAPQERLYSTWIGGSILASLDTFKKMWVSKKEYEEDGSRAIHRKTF
UniProt Q5JTZ9, whole entry, looked up: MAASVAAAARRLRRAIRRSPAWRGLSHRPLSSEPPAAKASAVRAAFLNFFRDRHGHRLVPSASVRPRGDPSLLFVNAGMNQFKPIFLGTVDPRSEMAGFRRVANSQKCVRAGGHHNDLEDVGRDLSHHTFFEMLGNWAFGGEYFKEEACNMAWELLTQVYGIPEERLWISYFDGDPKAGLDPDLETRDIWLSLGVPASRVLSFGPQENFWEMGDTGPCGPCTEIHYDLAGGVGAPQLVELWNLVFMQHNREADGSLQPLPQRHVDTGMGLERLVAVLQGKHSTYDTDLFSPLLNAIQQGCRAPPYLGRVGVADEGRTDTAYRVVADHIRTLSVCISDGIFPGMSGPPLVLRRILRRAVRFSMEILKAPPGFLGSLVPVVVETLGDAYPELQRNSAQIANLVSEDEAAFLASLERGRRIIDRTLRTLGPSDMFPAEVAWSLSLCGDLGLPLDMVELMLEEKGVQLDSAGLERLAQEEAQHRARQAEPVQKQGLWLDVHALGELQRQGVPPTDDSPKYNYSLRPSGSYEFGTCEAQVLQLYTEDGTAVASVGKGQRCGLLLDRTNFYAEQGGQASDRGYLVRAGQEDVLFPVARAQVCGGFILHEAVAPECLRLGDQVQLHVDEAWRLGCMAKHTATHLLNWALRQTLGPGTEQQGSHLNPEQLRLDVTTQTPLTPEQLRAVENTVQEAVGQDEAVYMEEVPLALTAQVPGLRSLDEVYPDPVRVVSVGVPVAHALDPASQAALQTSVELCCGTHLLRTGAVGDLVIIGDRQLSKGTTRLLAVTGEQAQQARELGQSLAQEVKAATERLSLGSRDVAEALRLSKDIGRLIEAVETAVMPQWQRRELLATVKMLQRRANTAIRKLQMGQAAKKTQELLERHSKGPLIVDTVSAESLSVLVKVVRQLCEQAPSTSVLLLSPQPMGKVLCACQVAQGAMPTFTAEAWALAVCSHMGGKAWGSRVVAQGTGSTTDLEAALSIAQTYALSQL
UniProt Q15057: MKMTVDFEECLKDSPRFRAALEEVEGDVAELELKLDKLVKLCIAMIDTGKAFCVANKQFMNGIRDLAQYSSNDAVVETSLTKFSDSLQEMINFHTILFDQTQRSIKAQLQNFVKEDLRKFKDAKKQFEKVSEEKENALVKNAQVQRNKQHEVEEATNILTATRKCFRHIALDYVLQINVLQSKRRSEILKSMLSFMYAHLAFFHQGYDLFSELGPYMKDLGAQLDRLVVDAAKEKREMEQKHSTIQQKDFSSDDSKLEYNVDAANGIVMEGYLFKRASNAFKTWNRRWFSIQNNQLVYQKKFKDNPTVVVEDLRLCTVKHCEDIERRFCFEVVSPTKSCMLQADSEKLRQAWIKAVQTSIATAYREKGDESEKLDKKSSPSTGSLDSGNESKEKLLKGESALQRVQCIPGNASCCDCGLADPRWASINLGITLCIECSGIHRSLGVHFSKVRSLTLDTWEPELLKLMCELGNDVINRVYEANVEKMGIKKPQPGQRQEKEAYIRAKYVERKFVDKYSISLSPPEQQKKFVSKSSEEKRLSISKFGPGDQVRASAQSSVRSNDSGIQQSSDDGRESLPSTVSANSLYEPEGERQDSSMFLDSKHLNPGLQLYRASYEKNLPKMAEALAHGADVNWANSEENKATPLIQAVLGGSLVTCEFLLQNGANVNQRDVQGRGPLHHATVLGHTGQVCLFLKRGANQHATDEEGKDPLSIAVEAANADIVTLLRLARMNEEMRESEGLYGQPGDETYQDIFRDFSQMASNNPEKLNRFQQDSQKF

log2 fold change, inactive:
ACSF3 (UniProt Q4G176) 0.146
ACAT1, A0A5F9ZHJ0 -0.051
AAMP (UniProt Q13685) -0.016
ACADVL isoform 3 (UniProt P49748) -0.021
ACSL1 (UniProt P33121) 0.031
ACOX3 (UniProt O15254) -0.036
ABCB4 (UniProt P21439) -0.082
ABCA3 (UniProt Q99758) 0.192
ACVR1 (UniProt Q04771) 0.122
AAGAB (UniProt Q6PD74) 0.045
ACP2 (UniProt P11117) 0.018
ABHD6 (UniProt Q9BV23) -0.074
ACACB (UniProt O00763) 0.089
AAR2 (UniProt Q9Y312) -0.029
ACP1 (UniProt P24666) 0.035
ACO2 (UniProt Q99798) 0.027
ACIN1 (UniProt Q9UKV3) -0.038
AARSD1 (UniProt Q9BTE6) -0.042
ADAMTS13 (UniProt Q76LX8) -0.054
ABHD11 (UniProt Q8NFV4) 0.004
ACTN4 (UniProt K7EJH8) 0.018
ABHD16A (UniProt O95870) -0.05
ACYP2 (UniProt P14621) -0.114
ACADM isoform 2 (UniProt P11310) -0.016
ABITRAM (UniProt Q9NX38) 0.025
AAK1 (UniProt Q2M2I8) -0.047
AARSD1 isoform 3 (UniProt Q9BTE6) 0.08
ACTBL2 (UniProt Q562R1) 0.239
ACTG1 (UniProt K7EM38) -0.122
ACTR1B (UniProt P42025) -0.048
AARS2 (UniProt Q5JTZ9) 0
A2ML1 (UniProt A8K2U0) -0.351
ACSL5 isoform 3 (UniProt Q9ULC5) -0.072
ACSS1 (UniProt Q9NUB1) 0.021
ABL1 isoform 2 (UniProt P00519) 0.144
ABRAXAS1 (UniProt Q6UWZ7) -0.013
ACAP2 (UniProt Q15057) 0.062
ACAA2 (UniProt K7ER88) 0.173

Compound: COC(=O)[C@H](CCSC)NC(=O)C1=C(C=C(C=C1)NC[C@H](CS)N)C2=CC=CC=C2
Assay: as above
How it was run: as §1

log2 fold change, inactive:
ACSF3 (UniProt Q4G176) -0.019
AAMP (UniProt Q13685) -0.009
ACADVL isoform 3 (UniProt P49748) -0.001
ACSL1 (UniProt P33121) 0.042
ACOX3 (UniProt O15254) 0.046
ABCB4 (UniProt P21439) 0.102
ABCA3 (UniProt Q99758) -0.039
ACVR1 (UniProt Q04771) -0.156
AAGAB (UniProt Q6PD74) -0.029
ACP2 (UniProt P11117) -0.006
ACACB (UniProt O00763) -0.137
AAR2 (UniProt Q9Y312) -0.015
ACP1 (UniProt P24666) -0.111
ACO2 (UniProt Q99798) -0.037
ACIN1 (UniProt Q9UKV3) 0.003
ABHD11 (UniProt Q8NFV4) -0.095
ABHD16A (UniProt O95870) 0.031
ACYP2 (UniProt P14621) -0.226
ACADM isoform 2 (UniProt P11310) 0.004
ABITRAM (UniProt Q9NX38) -0.049
AAK1 (UniProt Q2M2I8) -0.044
AARSD1 isoform 3 (UniProt Q9BTE6) 0.004
ACTBL2 (UniProt Q562R1) 0.15
ACTG1 (UniProt K7EM38) -0.161
ACTR1B (UniProt P42025) -0.075
AARS2 (UniProt Q5JTZ9) -0.017
A2ML1 (UniProt A8K2U0) 0.075
ACSL5 isoform 3 (UniProt Q9ULC5) 0
ACSS1 (UniProt Q9NUB1) -0.003
ABL1 isoform 2 (UniProt P00519) -0.049
ABRAXAS1 (UniProt Q6UWZ7) -0.015
ACAP2 (UniProt Q15057) -0.026
ACAA2 (UniProt K7ER88) -0.105
